Assay results as given in the supplement of paper PMC10849652.
This is one part of the list.

Sequences of proteins named here, by UniProt entry; tags and fusion partners are left off. A change or cut given only in a name is not applied to a line headed by its entry.
UniProt Q9NXV6: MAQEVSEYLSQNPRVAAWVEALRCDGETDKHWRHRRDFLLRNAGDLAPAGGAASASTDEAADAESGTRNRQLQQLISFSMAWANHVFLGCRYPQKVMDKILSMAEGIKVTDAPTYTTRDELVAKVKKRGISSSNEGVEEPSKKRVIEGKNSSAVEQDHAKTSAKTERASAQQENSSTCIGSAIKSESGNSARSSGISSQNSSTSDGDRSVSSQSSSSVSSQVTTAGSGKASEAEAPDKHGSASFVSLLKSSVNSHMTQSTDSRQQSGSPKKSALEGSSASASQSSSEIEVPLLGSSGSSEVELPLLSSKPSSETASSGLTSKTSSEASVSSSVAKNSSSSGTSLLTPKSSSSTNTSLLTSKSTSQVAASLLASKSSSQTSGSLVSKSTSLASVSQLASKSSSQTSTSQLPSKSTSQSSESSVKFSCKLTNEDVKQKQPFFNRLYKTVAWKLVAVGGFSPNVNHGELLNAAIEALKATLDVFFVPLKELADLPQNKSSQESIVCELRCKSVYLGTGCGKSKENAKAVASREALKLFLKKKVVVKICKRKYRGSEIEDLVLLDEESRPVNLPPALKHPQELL
UniProt Q00536: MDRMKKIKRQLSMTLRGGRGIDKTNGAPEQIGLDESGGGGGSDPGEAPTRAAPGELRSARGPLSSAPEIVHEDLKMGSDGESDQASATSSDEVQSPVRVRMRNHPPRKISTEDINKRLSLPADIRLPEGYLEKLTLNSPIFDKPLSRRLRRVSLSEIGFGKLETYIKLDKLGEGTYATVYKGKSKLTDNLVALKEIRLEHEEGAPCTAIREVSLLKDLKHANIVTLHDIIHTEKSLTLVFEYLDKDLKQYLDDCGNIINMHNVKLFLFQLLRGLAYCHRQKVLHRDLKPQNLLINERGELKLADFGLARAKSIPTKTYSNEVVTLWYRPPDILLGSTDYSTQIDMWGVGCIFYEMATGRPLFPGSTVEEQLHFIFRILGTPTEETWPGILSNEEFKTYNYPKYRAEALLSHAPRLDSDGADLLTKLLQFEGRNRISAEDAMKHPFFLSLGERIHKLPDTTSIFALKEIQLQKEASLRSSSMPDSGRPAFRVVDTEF
UniProt P41208: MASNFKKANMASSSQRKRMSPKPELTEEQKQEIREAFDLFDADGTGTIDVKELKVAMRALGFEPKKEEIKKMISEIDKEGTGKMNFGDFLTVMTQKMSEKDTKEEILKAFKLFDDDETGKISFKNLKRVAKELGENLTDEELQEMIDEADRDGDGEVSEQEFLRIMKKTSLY
UniProt Q9Y6H1: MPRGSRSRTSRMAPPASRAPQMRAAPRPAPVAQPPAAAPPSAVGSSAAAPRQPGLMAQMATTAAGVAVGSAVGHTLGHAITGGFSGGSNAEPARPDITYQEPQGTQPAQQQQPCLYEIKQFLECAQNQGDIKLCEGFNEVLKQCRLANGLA
UniProt Q9Y5S2: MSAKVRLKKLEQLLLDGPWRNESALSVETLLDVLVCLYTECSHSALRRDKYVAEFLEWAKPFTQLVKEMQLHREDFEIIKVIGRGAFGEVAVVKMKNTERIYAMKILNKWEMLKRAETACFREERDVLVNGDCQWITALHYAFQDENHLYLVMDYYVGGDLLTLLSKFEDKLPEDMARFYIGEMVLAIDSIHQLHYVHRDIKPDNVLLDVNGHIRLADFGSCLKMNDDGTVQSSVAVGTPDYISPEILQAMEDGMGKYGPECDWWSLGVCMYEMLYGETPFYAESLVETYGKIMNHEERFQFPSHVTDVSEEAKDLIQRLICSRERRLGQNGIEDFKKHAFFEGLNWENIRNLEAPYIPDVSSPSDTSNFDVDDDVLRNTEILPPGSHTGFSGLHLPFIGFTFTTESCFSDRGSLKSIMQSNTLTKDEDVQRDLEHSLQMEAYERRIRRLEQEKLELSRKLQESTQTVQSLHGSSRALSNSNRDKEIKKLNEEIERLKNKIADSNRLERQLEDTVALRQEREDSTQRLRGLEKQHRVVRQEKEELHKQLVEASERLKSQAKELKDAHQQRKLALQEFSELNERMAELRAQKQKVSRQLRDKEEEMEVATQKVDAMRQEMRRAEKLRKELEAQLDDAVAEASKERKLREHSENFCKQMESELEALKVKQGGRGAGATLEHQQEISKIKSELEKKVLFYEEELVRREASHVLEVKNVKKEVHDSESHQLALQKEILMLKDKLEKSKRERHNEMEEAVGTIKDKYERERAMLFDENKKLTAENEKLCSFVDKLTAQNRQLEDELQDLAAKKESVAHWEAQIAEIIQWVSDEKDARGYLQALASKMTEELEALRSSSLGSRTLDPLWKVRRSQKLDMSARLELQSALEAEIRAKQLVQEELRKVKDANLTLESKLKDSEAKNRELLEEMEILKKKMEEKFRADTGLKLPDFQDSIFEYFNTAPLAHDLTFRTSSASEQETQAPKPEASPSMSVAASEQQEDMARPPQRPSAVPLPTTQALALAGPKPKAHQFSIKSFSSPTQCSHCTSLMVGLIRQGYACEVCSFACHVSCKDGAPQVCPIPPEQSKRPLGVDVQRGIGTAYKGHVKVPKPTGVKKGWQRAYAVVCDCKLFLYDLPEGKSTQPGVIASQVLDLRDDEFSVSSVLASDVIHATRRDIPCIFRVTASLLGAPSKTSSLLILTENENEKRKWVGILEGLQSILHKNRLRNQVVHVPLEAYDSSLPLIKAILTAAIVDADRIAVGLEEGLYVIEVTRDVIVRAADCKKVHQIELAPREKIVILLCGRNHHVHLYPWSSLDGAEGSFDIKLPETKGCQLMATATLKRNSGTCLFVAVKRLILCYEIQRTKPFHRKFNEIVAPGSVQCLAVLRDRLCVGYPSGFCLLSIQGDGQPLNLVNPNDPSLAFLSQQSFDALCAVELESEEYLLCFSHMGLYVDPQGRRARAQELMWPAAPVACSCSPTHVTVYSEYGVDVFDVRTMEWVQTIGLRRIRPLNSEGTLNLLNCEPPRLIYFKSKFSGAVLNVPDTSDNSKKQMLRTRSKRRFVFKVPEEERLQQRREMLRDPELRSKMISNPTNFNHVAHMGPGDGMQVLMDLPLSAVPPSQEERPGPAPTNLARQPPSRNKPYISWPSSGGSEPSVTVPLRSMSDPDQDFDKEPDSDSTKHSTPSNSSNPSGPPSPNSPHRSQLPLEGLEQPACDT
UniProt Q9NRR8: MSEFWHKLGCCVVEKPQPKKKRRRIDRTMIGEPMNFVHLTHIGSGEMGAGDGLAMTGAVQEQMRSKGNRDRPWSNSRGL
UniProt P06493, whole entry, looked up: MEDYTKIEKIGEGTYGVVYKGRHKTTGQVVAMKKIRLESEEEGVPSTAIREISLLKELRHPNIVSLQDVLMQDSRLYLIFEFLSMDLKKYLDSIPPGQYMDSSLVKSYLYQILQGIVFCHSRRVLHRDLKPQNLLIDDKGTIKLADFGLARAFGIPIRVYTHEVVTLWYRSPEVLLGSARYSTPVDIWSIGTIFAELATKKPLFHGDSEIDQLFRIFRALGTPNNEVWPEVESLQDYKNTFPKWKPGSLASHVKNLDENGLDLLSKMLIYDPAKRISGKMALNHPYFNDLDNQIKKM
UniProt Q96G28: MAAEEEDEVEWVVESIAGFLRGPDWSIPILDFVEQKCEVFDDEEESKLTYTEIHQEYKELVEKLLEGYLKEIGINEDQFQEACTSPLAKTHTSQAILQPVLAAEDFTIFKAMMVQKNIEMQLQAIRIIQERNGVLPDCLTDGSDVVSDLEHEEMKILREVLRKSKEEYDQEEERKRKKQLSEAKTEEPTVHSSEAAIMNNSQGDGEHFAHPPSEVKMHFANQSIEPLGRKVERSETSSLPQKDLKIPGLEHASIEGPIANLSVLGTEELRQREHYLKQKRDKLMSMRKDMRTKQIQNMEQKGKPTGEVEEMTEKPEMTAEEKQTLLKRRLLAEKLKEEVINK
UniProt O00748: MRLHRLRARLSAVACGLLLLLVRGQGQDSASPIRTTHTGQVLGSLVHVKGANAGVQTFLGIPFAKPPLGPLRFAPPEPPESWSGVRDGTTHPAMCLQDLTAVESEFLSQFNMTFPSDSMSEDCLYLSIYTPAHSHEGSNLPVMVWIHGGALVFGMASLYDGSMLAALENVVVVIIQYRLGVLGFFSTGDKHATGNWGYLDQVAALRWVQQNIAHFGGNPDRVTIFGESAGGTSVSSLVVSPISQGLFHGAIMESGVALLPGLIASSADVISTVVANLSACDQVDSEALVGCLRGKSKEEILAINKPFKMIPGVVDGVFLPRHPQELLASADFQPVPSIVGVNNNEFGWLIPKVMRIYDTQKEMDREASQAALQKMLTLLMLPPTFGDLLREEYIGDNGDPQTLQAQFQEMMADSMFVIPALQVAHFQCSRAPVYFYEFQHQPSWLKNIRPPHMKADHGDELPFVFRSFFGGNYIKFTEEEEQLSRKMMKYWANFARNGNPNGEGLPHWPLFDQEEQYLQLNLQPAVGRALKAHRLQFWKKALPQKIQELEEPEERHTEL
UniProt Q69YH5: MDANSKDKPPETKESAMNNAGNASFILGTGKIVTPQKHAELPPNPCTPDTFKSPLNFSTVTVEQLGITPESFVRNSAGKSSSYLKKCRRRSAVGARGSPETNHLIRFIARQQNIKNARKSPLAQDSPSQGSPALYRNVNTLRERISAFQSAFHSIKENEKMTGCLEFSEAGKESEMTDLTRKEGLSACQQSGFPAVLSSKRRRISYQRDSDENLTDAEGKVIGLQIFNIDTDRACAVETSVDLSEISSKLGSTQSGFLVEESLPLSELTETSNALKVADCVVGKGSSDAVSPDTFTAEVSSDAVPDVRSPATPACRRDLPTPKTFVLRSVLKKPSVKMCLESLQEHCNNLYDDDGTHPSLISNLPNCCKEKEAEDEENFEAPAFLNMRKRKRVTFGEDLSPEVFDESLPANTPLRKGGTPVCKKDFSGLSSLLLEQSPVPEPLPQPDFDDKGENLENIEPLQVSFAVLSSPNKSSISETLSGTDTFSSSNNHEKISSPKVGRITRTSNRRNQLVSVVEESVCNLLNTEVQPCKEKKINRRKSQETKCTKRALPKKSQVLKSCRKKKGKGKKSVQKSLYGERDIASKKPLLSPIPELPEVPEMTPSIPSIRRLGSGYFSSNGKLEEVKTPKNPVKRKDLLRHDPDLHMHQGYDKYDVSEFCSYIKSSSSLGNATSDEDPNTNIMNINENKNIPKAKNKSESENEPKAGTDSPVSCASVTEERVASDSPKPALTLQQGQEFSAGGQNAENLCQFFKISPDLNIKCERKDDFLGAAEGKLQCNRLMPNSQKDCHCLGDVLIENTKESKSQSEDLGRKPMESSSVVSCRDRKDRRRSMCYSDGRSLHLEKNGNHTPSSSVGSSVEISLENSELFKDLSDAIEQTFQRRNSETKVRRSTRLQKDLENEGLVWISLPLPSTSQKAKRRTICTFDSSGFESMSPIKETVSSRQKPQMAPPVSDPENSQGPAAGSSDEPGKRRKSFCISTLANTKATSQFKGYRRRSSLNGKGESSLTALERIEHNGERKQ
UniProt Q9H3Q1: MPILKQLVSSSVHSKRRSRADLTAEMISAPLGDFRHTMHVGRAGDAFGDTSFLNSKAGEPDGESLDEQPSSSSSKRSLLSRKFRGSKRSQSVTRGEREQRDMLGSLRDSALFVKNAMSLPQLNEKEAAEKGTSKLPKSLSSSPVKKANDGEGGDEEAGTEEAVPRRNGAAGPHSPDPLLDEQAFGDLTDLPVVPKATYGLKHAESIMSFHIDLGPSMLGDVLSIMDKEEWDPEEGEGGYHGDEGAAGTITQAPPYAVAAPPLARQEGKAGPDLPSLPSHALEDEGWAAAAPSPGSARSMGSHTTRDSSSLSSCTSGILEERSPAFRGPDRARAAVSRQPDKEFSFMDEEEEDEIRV
UniProt P33151: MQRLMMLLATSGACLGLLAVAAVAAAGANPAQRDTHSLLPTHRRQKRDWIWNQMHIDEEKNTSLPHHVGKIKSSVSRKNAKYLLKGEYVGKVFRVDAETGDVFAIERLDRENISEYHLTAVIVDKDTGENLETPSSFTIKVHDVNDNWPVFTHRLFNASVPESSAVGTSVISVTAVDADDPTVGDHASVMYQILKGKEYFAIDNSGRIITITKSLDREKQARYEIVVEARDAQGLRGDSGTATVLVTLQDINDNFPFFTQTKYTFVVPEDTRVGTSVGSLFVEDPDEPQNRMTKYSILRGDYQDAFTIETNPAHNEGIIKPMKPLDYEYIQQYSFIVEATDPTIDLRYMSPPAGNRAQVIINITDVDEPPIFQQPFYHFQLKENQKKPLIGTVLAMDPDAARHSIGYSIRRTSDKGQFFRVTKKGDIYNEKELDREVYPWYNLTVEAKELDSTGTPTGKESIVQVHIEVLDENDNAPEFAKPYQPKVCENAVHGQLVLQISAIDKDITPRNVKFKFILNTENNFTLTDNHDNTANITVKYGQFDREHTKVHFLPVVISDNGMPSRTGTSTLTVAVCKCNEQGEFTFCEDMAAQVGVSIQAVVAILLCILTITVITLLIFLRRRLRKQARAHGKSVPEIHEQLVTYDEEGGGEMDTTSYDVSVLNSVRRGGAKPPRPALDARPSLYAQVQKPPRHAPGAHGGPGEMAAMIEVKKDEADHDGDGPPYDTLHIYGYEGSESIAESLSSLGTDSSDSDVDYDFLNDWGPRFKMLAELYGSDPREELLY

Legend:
Test in all cases: log2 fold change, soluble protein after heating vs DMSO (PISA); higher = thermal stabilisation; K562 cells, 10 uM, 30 min; active = over 0.2 and 3.5 SD of the protein, either way, in both replicates (recomputed)
[1] = compound: CC1=C(C=C(C=C1)NC(=O)C2=CC(=CC=C2)C(C)(C)C#N)NC3=CC4=C(C=C3)N=CN(C4=O)C
Procedure, shortened: (§1)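 Thermal stability values are relative to control samples and come from duplicates. They are expressed as log2 fold changes. For measurement, K562 cells (2×10^6 cells/mL) received 10 μM compound for 30 min, and aliquots were heated for 3 min over 48°C-58°C, pooled, and extracted at 4°C in PBS with 0.5% NP-40. Soluble protein, the supernatant after 21,000xg for 90 min, was quantified by TMTpro 16plex LC-MS/MS with equalised channel sums.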

[2] = compound: CC1=C(C=C(C=C1)NC(=O)C2=CC(=CC=C2)N(C)C)NC(=O)C3=CC=C(C=C3)O
Procedure, shortened: as §1

[3] = compound: CC1=CC=C(C=C1)SC2=C3C=C(SC3=CN=C2)C(=O)N
Procedure, shortened: as §1

[4] = compound: CC1=NC(=CC=C1)C2=C(N=C(N2)C(C)(C)C)C3=CC4=NC=CN=C4C=C3
Procedure, shortened: as §1

Nexturastat A = compound: CCCCN(Cc1ccc(C(=O)NO)cc1)C(=O)Nc1ccccc1 [Nexturastat A]
Procedure, shortened: as §1

vemurafenib = compound: CCCS(=O)(=O)Nc1ccc(F)c(C(=O)c2c[nH]c3ncc(-c4ccc(Cl)cc4)cc23)c1F [vemurafenib]
Procedure, shortened: as §1

[5] = compound: CCCS(=O)(=O)Nc1ccc(F)c(C(=O)c2c[nH]c3ncc(Cl)cc23)c1F
Procedure, shortened: as §1

[6] = compound: CCCc1cc(C)[nH]c(=O)c1CNC(=O)c1cc(-c2ccnc(N3CCN(C)CC3)c2)cc2c1cnn2C(C)C
Procedure, shortened: as §1

givinostat = compound: CCN(CC)Cc1ccc2cc(COC(=O)Nc3ccc(C(=O)NO)cc3)ccc2c1 [givinostat]
Procedure, shortened: as §1

barasertib = compound: CCN(CCCOc1ccc2c(Nc3cc(CC(=O)Nc4cccc(F)c4)[nH]n3)ncnc2c1)CCOP(=O)(O)O [barasertib]
Procedure, shortened: as §1

[7] = compound: CC[C@@H]1C(=O)N(C)c2cnc(Nc3ccc(C(=O)NC4CCN(C)CC4)cc3OC)nc2N1C1CCCC1
Procedure, shortened: as §1

volasertib = compound: CC[C@@H]1C(=O)N(C)c2cnc(Nc3ccc(C(=O)N[C@H]4CC[C@H](N5CCN(CC6CC6)CC5)CC4)cc3OC)nc2N1C(C)C [volasertib]
Procedure, shortened: as §1

[8] = compound: CC[C@H](C)N1C=C(C2=C(C=C(C=C21)C3=CN=C(C=C3)N4CCNCC4)C(=O)NCC5=C(C=C(NC5=O)C)C)C
Procedure, shortened: as §1

epoxomicin = compound: CC[C@H](C)[C@@H](C(=O)N[C@@H]([C@@H](C)O)C(=O)N[C@@H](CC(C)C)C(=O)[C@]1(CO1)C)NC(=O)[C@H]([C@@H](C)CC)N(C)C(=O)C [epoxomicin]
Procedure, shortened: as §1

[9] = compound: CCn1cc(-c2ccnc3[nH]c(-c4cccc(CN(C)C)c4)cc23)c(-c2ccc(NC(=O)N(C)C)cc2)n1
Procedure, shortened: as §1

[10] = compound: CN(C)CC(=O)Nc1ccc2[nH]c(=O)c3ccccc3c2c1
Procedure, shortened: as §1

[11] = compound: CN1C2=C(C3=C1C(=O)N(N=C3)CC4=CC(=CC=C4)N)SC(=C2)S(=O)C
Procedure, shortened: as §1

[12] = compound: CN1CCC(CNc2ccc3ncc(-c4cccc(OC(F)(F)F)c4)n3n2)CC1
Procedure, shortened: as §1

[13] = compound: CCn1c(C(=O)N(C2CC2)C2CC2)cc2c3c(ncn3C)c(Nc3cc(C)n(C)n3)nc21
Procedure, shortened: as §1

rosiglitazone = compound: CN(CCOC1=CC=C(C=C1)C[C@H]2C(=O)NC(=O)S2)C3=CC=CC=N3 (racemic) [rosiglitazone]
Procedure, shortened: as §1

| Target | log2 fold change [1] | log2 fold change [2] | log2 fold change [3] | log2 fold change [4] | log2 fold change (Nexturastat A) | log2 fold change (vemurafenib) | log2 fold change [5] | log2 fold change [6] | log2 fold change (givinostat) | log2 fold change (barasertib) | log2 fold change [7] | log2 fold change (volasertib) | log2 fold change [8] | log2 fold change (epoxomicin) | log2 fold change [9] | log2 fold change [10] | log2 fold change [11] | log2 fold change [12] | log2 fold change [13] | log2 fold change (rosiglitazone) |
| --- | --- | --- | --- | --- | --- | --- | --- | --- | --- | --- | --- | --- | --- | --- | --- | --- | --- | --- | --- | --- |
| CDKN2AIP (UniProt Q9NXV6) | inactive: 0.046 | inactive: -0.01 | inactive: -0.076 | inactive: 0.008 | inactive: 0.052 | inactive: 0.043 | inactive: -0.053 | inactive: 0.023 | inactive: 0.012 | inactive: -0.017 | inactive: 0.096 | inactive: 0.057 | inactive: -0.001 | inactive: 0.095 | inactive: 0.008 | inactive: 0.046 | inactive: 0.03 | inactive: 0.094 | – | – |
| CDK16 isoform 2 (UniProt Q00536) | inactive: 0.003 | inactive: -0.017 | inactive: 0.028 | inactive: 0.021 | inactive: -0.052 | inactive: -0.072 | inactive: 0.027 | inactive: -0.101 | inactive: -0.043 | inactive: -0.023 | inactive: -0.049 | inactive: -0.316 | inactive: -0.014 | inactive: 0.02 | inactive: 0.001 | inactive: 0.041 | inactive: -0.074 | inactive: 0.135 | – | – |
| CETN2 (UniProt P41208) | inactive: -0.015 | inactive: -0.016 | inactive: -0.146 | inactive: -0.071 | inactive: -0.188 | inactive: -0.008 | active: -0.335 | inactive: -0.034 | inactive: -0.034 | inactive: -0.013 | inactive: 0.149 | inactive: 0.159 | inactive: -0.006 | inactive: -0.074 | inactive: 0.065 | inactive: -0.058 | inactive: -0.018 | inactive: 0.037 | – | – |
| CHD4 isoform 2 (UniProt Q14839) | inactive: 0.011 | inactive: -0.028 | inactive: 0.062 | inactive: -0.014 | inactive: 0.087 | inactive: 0.068 | inactive: 0.116 | inactive: 0.101 | inactive: 0.154 | inactive: 0.121 | inactive: -0.124 | inactive: -0.382 | inactive: 0.158 | inactive: 0.069 | inactive: 0.098 | inactive: 0.048 | inactive: 0.1 | inactive: -0.073 | – | – |
| CEPT1 (UniProt Q9Y6K0) | inactive: 0.048 | inactive: 0.068 | inactive: 0.005 | inactive: 0.069 | inactive: -0.123 | inactive: 0.123 | inactive: 0.016 | inactive: -0.122 | inactive: -0.023 | inactive: 0.013 | inactive: -0.186 | inactive: -0.231 | inactive: -0.066 | inactive: -0.043 | inactive: -0.025 | inactive: 0.059 | inactive: -0.072 | inactive: 0.03 | – | – |
| CHD3 isoform 3 (UniProt Q12873) | inactive: 0.03 | inactive: -0.035 | inactive: 0.016 | inactive: -0.077 | inactive: 0.056 | inactive: 0.113 | inactive: 0.138 | inactive: 0.081 | inactive: 0.226 | inactive: 0.046 | inactive: -0.093 | active: -0.757 | inactive: 0.149 | inactive: 0.017 | inactive: 0.067 | inactive: 0.126 | inactive: 0.099 | inactive: -0.144 | – | – |
| CHCHD2 (UniProt Q9Y6H1) | inactive: 0.019 | inactive: -0.037 | inactive: 0.282 | inactive: 0.004 | inactive: -0.047 | inactive: -0.028 | inactive: -0.019 | inactive: -0.09 | inactive: -0.042 | inactive: 0.008 | inactive: 0.04 | inactive: 0.103 | inactive: -0.034 | inactive: 0.026 | inactive: -0.055 | inactive: -0.004 | inactive: -0.058 | inactive: 0.044 | – | – |
| CDC42BPB (UniProt Q9Y5S2) | inactive: -0.073 | inactive: -0.07 | inactive: -0.034 | inactive: -0.072 | inactive: 0.052 | inactive: -0.046 | inactive: -0.034 | inactive: 0.079 | inactive: -0.096 | inactive: -0.087 | inactive: 0.171 | inactive: 0.051 | inactive: -0.105 | inactive: -0.065 | inactive: 0.062 | inactive: 0.046 | inactive: 0.048 | inactive: -0.195 | – | – |
| CETN3 (UniProt O15182) | inactive: 0.001 | inactive: 0.012 | inactive: -0.099 | inactive: -0.102 | inactive: -0.01 | inactive: -0.056 | inactive: -0.164 | inactive: -0.116 | inactive: 0.008 | inactive: 0.043 | inactive: 0.037 | inactive: -0.028 | inactive: 0.006 | inactive: 0.042 | inactive: -0.014 | inactive: -0.043 | inactive: -0.013 | active: -0.287 | – | – |
| CHCHD6 (UniProt Q9BRQ6) | inactive: 0.023 | inactive: -0.039 | inactive: 0.017 | inactive: -0.05 | inactive: 0.04 | inactive: -0.026 | inactive: -0.085 | inactive: -0.06 | inactive: 0.024 | inactive: -0.035 | – | inactive: -0.033 | inactive: 0.009 | inactive: 0.041 | inactive: -0.014 | inactive: 0.077 | inactive: -0.027 | inactive: -0.084 | inactive: -0.039 | inactive: 0.297 |
| CDC42SE1 (UniProt Q9NRR8) | inactive: 0.132 | inactive: 0.059 | inactive: 0.016 | inactive: -0.09 | inactive: -0.115 | inactive: -0.007 | inactive: 0.051 | inactive: -0.705 | inactive: -0.236 | inactive: 0.071 | active: -0.995 | active: -2.6 | inactive: -0.127 | inactive: 0.031 | – | inactive: 0.05 | inactive: -0.074 | – | – | – |
| CDK1 (UniProt P06493) | inactive: 0.017 | inactive: -0.017 | inactive: 0.004 | inactive: 0.036 | inactive: -0.015 | inactive: 0.029 | inactive: 0.02 | inactive: 0.001 | inactive: 0.048 | inactive: 0.001 | inactive: -0.03 | inactive: -0.05 | inactive: 0.017 | inactive: 0.055 | inactive: 0 | inactive: 0.03 | inactive: 0.005 | inactive: -0.108 | – | – |
| CFAP36 isoform 2 (UniProt Q96G28) | inactive: 0.005 | inactive: 0.024 | inactive: 0.054 | inactive: 0.066 | inactive: 0.023 | inactive: -0.041 | inactive: 0.012 | inactive: -0.061 | inactive: -0.003 | inactive: 0.03 | inactive: -0.159 | active: -0.433 | – | inactive: -0.017 | inactive: 0.048 | inactive: 0.005 | inactive: 0.051 | inactive: -0.049 | – | – |
| CES2 isoform 4 (UniProt O00748) | inactive: -0.003 | inactive: -0.072 | inactive: 0.005 | inactive: -0.065 | inactive: 0.058 | inactive: -0.029 | inactive: -0.105 | inactive: 0.003 | inactive: 0.021 | inactive: 0.022 | inactive: 0.033 | inactive: 0.108 | inactive: 0.1 | inactive: -0.168 | inactive: -0.012 | inactive: -0.02 | inactive: 0.034 | inactive: 0.054 | – | – |
| CEND1 (UniProt Q8N111) | inactive: -0.094 | inactive: 0.045 | inactive: -0.034 | – | – | – | inactive: -0.01 | – | inactive: 0.05 | – | – | inactive: 0.039 | – | – | – | – | – | – | inactive: -0.048 | – |
| CDCA2 (UniProt Q69YH5) | inactive: -0.134 | inactive: 0.033 | inactive: -0.047 | inactive: -0.299 | active: 0.638 | inactive: -0.009 | inactive: -0.043 | inactive: -0.027 | inactive: 0.382 | – | inactive: 0.193 | inactive: 0.275 | inactive: -0.131 | inactive: -0.025 | inactive: 0.152 | inactive: -0.038 | – | inactive: 0.205 | – | – |
| CENPU (UniProt Q71F23) | inactive: 0.148 | – | inactive: -0.583 | inactive: -0.075 | inactive: 0.114 | – | inactive: 0.097 | – | inactive: 0.09 | – | – | inactive: -0.209 | – | inactive: 0.007 | – | – | inactive: 0.193 | – | inactive: -0.234 | – |
| CDC42EP4 (UniProt Q9H3Q1) | inactive: -0.037 | inactive: -0.018 | inactive: 0.006 | – | inactive: 0.061 | inactive: 0 | inactive: -0.039 | inactive: -0.034 | inactive: 0.078 | inactive: -0.025 | inactive: 0.047 | inactive: 0 | inactive: 0.015 | inactive: -0.019 | inactive: -0.052 | inactive: -0.008 | inactive: -0.027 | inactive: -0.053 | inactive: -0.013 | inactive: 0.019 |
| CDH5 (UniProt P33151) | inactive: -0.104 | – | – | – | inactive: 0.001 | – | – | inactive: 0.031 | inactive: -0.124 | – | inactive: 0.175 | – | – | inactive: -0.184 | – | – | – | – | inactive: 0.225 | – |

Single records, as listed above. Order of values: log2 fold change [1] | log2 fold change [2] | log2 fold change [3] | log2 fold change [4] | log2 fold change (Nexturastat A) | log2 fold change (vemurafenib) | log2 fold change [5] | log2 fold change [6] | log2 fold change (givinostat) | log2 fold change (barasertib) | log2 fold change [7] | log2 fold change (volasertib) | log2 fold change [8] | log2 fold change (epoxomicin) | log2 fold change [9] | log2 fold change [10] | log2 fold change [11] | log2 fold change [12] | log2 fold change [13] | log2 fold change (rosiglitazone)
CHCHD2 (UniProt Q9Y6H1) in the list: inactive: 0.019 | inactive: -0.037 | inactive: 0.282 | inactive: 0.004 | inactive: -0.047 | inactive: -0.028 | inactive: -0.019 | inactive: -0.09 | inactive: -0.042 | inactive: 0.008 | inactive: 0.04 | inactive: 0.103 | inactive: -0.034 | inactive: 0.026 | inactive: -0.055 | inactive: -0.004 | inactive: -0.058 | inactive: 0.044 | – | –
CHD4 isoform 2 (UniProt Q14839) in the list: inactive: 0.011 | inactive: -0.028 | inactive: 0.062 | inactive: -0.014 | inactive: 0.087 | inactive: 0.068 | inactive: 0.116 | inactive: 0.101 | inactive: 0.154 | inactive: 0.121 | inactive: -0.124 | inactive: -0.382 | inactive: 0.158 | inactive: 0.069 | inactive: 0.098 | inactive: 0.048 | inactive: 0.1 | inactive: -0.073 | – | –
